Among all 220,000 compounds or so, about 770 (0.35%) were called active. Inconclusive means that the source gave no clear call. Such entries were picked first, then a sample of the others. Cut-off read from the data, not from the text of the source: active = binding response below about 49% or above about 150%; inconclusive = no clear call, values can overlap the other calls; inactive = in between.
Biological target: Guanine nucleotide-binding protein G(o) subunit alpha (Homo sapiens) (UniProt P09471)
Test: RGS7-Galphao binding modulators, primary screen, biochemical, multiplexed bead flow cytometry (AID 1439);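 note: fluorescent Galphao held in activated GDP-AlF4 state binding bead-coupled RGS7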
Conditions: at 10 µM, actives lie on both sides

Sequences of proteins named here, by UniProt entry; tags and fusion partners are left off.
UniProt P09471, whole entry, looked up: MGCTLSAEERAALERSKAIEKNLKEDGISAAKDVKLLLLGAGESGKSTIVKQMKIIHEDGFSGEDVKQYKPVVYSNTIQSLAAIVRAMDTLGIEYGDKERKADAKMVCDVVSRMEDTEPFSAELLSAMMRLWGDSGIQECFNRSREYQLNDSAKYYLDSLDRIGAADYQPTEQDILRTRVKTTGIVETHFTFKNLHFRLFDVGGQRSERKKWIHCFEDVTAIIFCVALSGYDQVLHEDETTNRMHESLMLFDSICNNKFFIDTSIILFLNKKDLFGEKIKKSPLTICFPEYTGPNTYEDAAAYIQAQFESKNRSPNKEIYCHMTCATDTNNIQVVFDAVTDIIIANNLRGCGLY

Compound | binding response (% of control)
CC(C)c1ccc(N(C(=O)C(F)(F)F)C(C(=O)NC2CCCCC2)c2ccncc2)cc1 (stereo not drawn) | inactive: 93%
Clc1nc(NCc2ccco2)nc(N2CCCCC2)n1 | inconclusive: 111%
Cc1ccc(N(CC(O)Cn2nc(C)cc2C)S(=O)(=O)c2ccc3ccccc3c2)cc1 (stereo not drawn) | inactive: 95.6%
COc1cccc(OC)c1C(=O)NC(=S)Nc1ccc(N2CCOCC2)c(Cl)c1 | inconclusive: 90.1%
CCCC(=O)Nc1ccccc1-c1nnc(SCC)[nH]c1=O | inconclusive: 98.4%
COCCNC(=S)N/N=C(\C)c1ccc(Cl)c(Cl)c1Cl | inconclusive: 93.3%
COc1ccc(C2Oc3ccccc3N2C(C)=O)cc1 (stereo not drawn) | inactive: 101%
CCOC(=O)c1cc2sccc2n1CC(=O)N1CCCC1 | active: 150% [activator]
Cc1ccc(S(=O)(=O)N(C)C)cc1N | inconclusive: 101%
COC(=O)c1c(C)nc(C)c(C(=O)OC)c1-c1cccs1 | inactive: 101%
COc1cc(C)c(Cl)cc1S(=O)(=O)N1CCCC1 | inconclusive: 129%
Cc1[nH]c2ccccc2c1C(=O)CSC(=S)N1CCOCC1 | inconclusive: 101%
CCc1ccc(OCC(=O)N/N=C(\C)c2ccccc2OC(F)F)cc1 | inactive: 104%
CC(C)=NNc1nc(-c2ccccc2)c(C)s1 | inactive: 96.5%
CNC(=O)C(NC(=O)c1ccccc1)=C(C)C | inconclusive: 62.6%
O=C(c1nc2ccccn2c1CNCCOc1cccnc1)N1CCOCC1 | inactive: 102%
Cc1nn(-c2ccccn2)c(N)c1N=O | inconclusive: -944%
CC(=O)N/C(=C\c1ccc(F)cc1)C(=O)NC(Cc1ccccc1)C(=O)O (stereo not drawn) | inconclusive: 95.6%
Cc1cc(Cl)cc(Br)c1OCCCNCC(C)O (stereo not drawn) | inconclusive: 115%
CC(=O)Nc1nnc(-c2c(-c3c(Cl)cccc3Cl)noc2C)o1 | inconclusive: 103%
COc1ccc(C2c3ccc(O)cc3Oc3ncn4nc(-c5cccnc5)nc4c32)cc1OC (stereo not drawn) | inconclusive: -97.4%
C[N+]1(CN2C(=O)C3C4C=CC(C4)C3C2=O)CCCCC1 (stereo not drawn) | inconclusive: 122%
COC(=O)c1ccc(OC(=O)c2ccccn2)cc1 | inactive: 102%
CCOC(=O)Cc1csc(NC(=O)Nc2ccc(F)cc2)n1 | inconclusive: 121%

Compound | binding response (% of control)
CN1C2=CC=CC=CC2=[N+](C)C12C([N+](=O)[O-])=CC(=[N+]([O-])[O-])C=C2[N+](=O)[O-] (stereo not drawn) | inconclusive: 103%
O=C(CN1CCN(c2ccccn2)CC1)Nc1ccc(Oc2ccccc2)cc1 | inactive: 97.9%
CCOc1ccc2oc(C(=O)OC(C(=O)NC(N)=O)C(C)C)c(C)c2c1 (stereo not drawn) | inconclusive: 115%
Fc1ccc(-c2nc(-c3cccs3)no2)cc1 | inconclusive: 115%
CCN(CC)C(=O)CSc1nc2c(c(-c3cccnc3)c1C#N)CCCC2 | inconclusive: 116%
CC1CC(=O)Nc2ccccc2N1S(=O)(=O)c1ccc(F)cc1F (stereo not drawn) | inconclusive: 96.3%
O=c1cc2ncc(-c3[nH]ncc3[N+](=O)[O-])cn2[nH]1 | inconclusive: 103%
CCN(CC)c1ccc(/C=N/O)cc1 | inconclusive: 118%
NC(=O)N/N=C/c1cn(-c2ccccc2)nc1-c1cccs1 | inconclusive: 82.6%
CC(Oc1cccc(Cl)c1)c1ccnc2nc(/N=C/N(C)C)nn12 (stereo not drawn) | inactive: 100%
Cc1cc(N)n(-c2ccc(S(=O)(=O)N3CCOCC3)cc2[N+](=O)[O-])n1 | inconclusive: 126%
CNC(=O)CSc1nc2c([nH]c3ccccc32)c(=O)n1CCOC | inconclusive: 102%
O=C(NC1=NCCS1)C1CCCCC1 | inconclusive: 92.9%
CCCN(CCC)C(C)C(=O)NCC1(c2ccccc2)CCCC1 (stereo not drawn) | inactive: 94.2%
C/C(=N\NC(=S)NCc1ccccc1)C1CCCCC1 | inconclusive: 70.6%
O=c1[nH]oc2cc(Cl)ccc12 | inconclusive: 127%
COC(=O)c1cc(C#N)c(N2CCN(C)CC2)nc1C | inconclusive: 110%
CC1CC(C)CN(C(=O)C2CCC(CNc3c(N4CCCCC4)c(=O)c3=O)CC2)C1 (stereo not drawn) | inconclusive: -59.4%
Cc1cccc2c(C(=O)Nc3ccc(Br)cc3)cc(-c3ccccn3)nc12 | inconclusive: 114%
COc1cc(O)c(C(CC(=O)N2CCCCC2)c2cc(OC)c(OC)c(OC)c2)c(OC)c1 (stereo not drawn) | inconclusive: 110%
Cc1c(-n2c(SCC(=O)NC(C)C)nc3ccccc3c2=O)c(=O)n(-c2ccccc2)n1C | inconclusive: 113%
O=C(Nn1cnnc1)c1ccc(Cl)c([N+](=O)[O-])c1 | inconclusive: 135%
CC(C)Oc1cccc(OCCN2C(=O)c3ccccc3C2=O)c1 | inconclusive: 130%
CC(=O)Nc1ccc2c(CSc3nncs3)cc(=O)oc2c1 | inconclusive: 91.5%

Compound | binding response (% of control)
CCC(=O)N1CCc2cc(S(=O)(=O)NC(Cc3ccccc3)C(=O)NC3CCCCC3)ccc21 (stereo not drawn) | inactive: 104%
CC(O)CNc1nc2c(c(=O)n(Cc3ccc(Cl)c(Cl)c3)c(=O)n2C)n1C (stereo not drawn) | inconclusive: 106%
Cc1onc(-c2ccccc2)c1CNS(=O)(=O)c1cccc(Br)c1 | inconclusive: 111%
COc1cc(C(=O)NCC(=O)OC(C)C(=O)Nc2ncc(Cl)cc2Cl)cc(OC)c1OC (stereo not drawn) | inconclusive: 92.4%
CC(=O)c1ccc2c(c1)OCCOCCOCCOCCO2 | inconclusive: 122%
Cc1nn2c(N3CCN(C)CC3)cc(C(C)(C)C)nc2c1-c1ccccc1 | inconclusive: 131%
Cc1ccc(SC(=O)c2c(C)noc2-c2cc(C)on2)cc1 | inconclusive: 89.8%
Cc1ccc(C(=O)C[n+]2ccc(Cc3ccccc3)cc2)cc1 | inconclusive: 91.2%
Cc1ccc(-n2c3c(c(=O)[nH]c2=O)C(NS(=O)(=O)c2ccc(Cl)cc2)(C(F)(F)F)C(=O)N3)cc1 (stereo not drawn) | inactive: 101%
O=C1c2ccccc2NC(c2ccc(O)cc2)N1Cc1ccco1 (stereo not drawn) | inactive: 98.1%
CC(C)(C)c1cc(P(=O)(c2ccccc2)c2ccccc2)ccc1O | inconclusive: 91.7%
CCOC(=O)c1c(-c2ccccc2)cn2c(C)cc(C)nc12 | inconclusive: 92.1%
O=C1CSC(c2ccccn2)N1c1ccc(C(F)(F)F)cc1 (stereo not drawn) | inconclusive: 104%
Cc1[nH]c2ccccc2c1CC#N | inconclusive: 95.7%
CC1(C)CC(=O)C(N=Nc2cccnc2)=C(O)C1 | inconclusive: 127%
C/C=C/c1ccc(OCc2cc(=O)n3cc(C)ccc3n2)c(OC)c1 | inconclusive: 118%
CC(C)=N/N=C(\N)SCc1ccccc1 | inconclusive: 53.2%
Cc1ccc(SCc2cn3ccccc3n2)cc1 | inconclusive: 127%
CCN1C(=O)/C(=C2\SC(=S)N(NC(=O)c3ccccc3O)C2=O)c2ccccc21 | inconclusive: 251%
CC(=O)c1ccc(NC(=O)COC(=O)c2nc(Cl)ccc2Cl)cc1 | inconclusive: 93.1%
CCN1/C(=C2\C(=O)N(C)C(=S)N2c2ccccc2)C=Cc2ccccc21 | inconclusive: 217%
CC(C)COc1ccc(C(=O)N2C(=O)c3ccc(N)cc3C2=O)cc1 | inconclusive: 195%
NC(=O)C1CCN(c2ccc(S(=O)(=O)N3CCCCC3)cn2)CC1 | inconclusive: 108%
COc1ccc(-c2nnc(N(C)C(=O)C3CCCO3)s2)cc1 (stereo not drawn) | inactive: 104%

Of the compounds above, these have bromine:
Compound | binding response (% of control)
Cc1cc(Cl)cc(Br)c1OCCCNCC(C)O (stereo not drawn) | inconclusive: 115%
Cc1cccc2c(C(=O)Nc3ccc(Br)cc3)cc(-c3ccccn3)nc12 | inconclusive: 114%
Cc1onc(-c2ccccc2)c1CNS(=O)(=O)c1cccc(Br)c1 | inconclusive: 111%

The list continues:

Compound | binding response (% of control)
CC(C)N(Cc1cc2ccccc2[nH]c1=O)C(=O)c1cccc([N+](=O)[O-])c1 | inconclusive: 71.3%
COc1ccc(NC(=O)/C(C#N)=C\c2ccc(N3CCOCC3)o2)cc1 | inactive: 102%
O=C(NCc1ccccc1)C12CC3CC(CC(Cl)(C3)C1)C2 | inconclusive: 117%
Cc1sc(NC(=O)CSc2nnnn2C(C)C)c(C#N)c1C | inconclusive: 88.3%
O=C(c1cnc2ccccc2n1)N1CCN(c2ccc(C(F)(F)F)cn2)CC1 | inconclusive: 121%
CCn1cc(C(c2ccccc2)C(C(C)=O)[N+](=O)[O-])c2ccccc21 (stereo not drawn) | inconclusive: 218%
COC(=O)C(C)(C)ONC(=O)Nc1ccccc1Cl | inconclusive: 98.4%
Cc1ccc(-c2nc(-c3ccccc3)no2)cc1 | inactive: 98.1%
Cc1ccc(/C=N/n2c(-c3ccncc3)n[nH]c2=S)cc1 | inactive: 57.9%
C=C(C)c1cccc(C(C)(C)NC(=O)Nc2nnc(C(C)C)s2)c1 | inconclusive: 98.5%
Cc1ccc(S(=O)(=O)N2CCOCC2)cc1C(=O)OC1CCCCC1=O (stereo not drawn) | inconclusive: 94.2%
COc1ccc(/C(=N\Nc2ccccc2C(=O)O)c2ccccc2)cc1 | inconclusive: 90.6%
O=C(c1cccnc1)N1CCN(c2ccccc2Cl)CC1 | inconclusive: 233%
Cn1c(=O)[nH]c(=O)c2c1nc(Br)n2C/C=N/NC(N)=S | inconclusive: 102%
CCC(C)c1ccccc1NC(=O)c1cc2cccc([N+](=O)[O-])c2[nH]1 (stereo not drawn) | inconclusive: 137%
S=C1N(c2ccccc2)CN(C2CCCCC2)CN1c1ccccc1 | inconclusive: 91.6%
O=C(O)c1ccc(/C=C/c2nc3sc4c(c3c(=O)[nH]2)CCC4)cc1 | inconclusive: 93.2%
Cc1cc(C)n(-c2ccc(C(=O)Nc3ccc(C)c(S(=O)(=O)N4CCOCC4)c3)cc2)n1 | inconclusive: -130%
CC(C)(C)C(=O)O/N=C(\N)c1c(Cl)cccc1Cl | inconclusive: 134%
O=C(CCCN1C(=O)c2cccc3cccc(c23)C1=O)NC1CCS(=O)(=O)C1 (stereo not drawn) | inactive: 101%
CN(C)CC#Cc1cncc(C(=O)NNC(=O)Nc2ccc(Cl)cc2)c1 | inconclusive: 84.6%

Reference: PubChem BioAssay AID1439 (NMMLSC, 2008)
